Tested on: Spodoptera littoralis larvae (2nd and 4th instars)
Experiment: Insecticidal bioassay screening (castor leaf dip)
Assay type: in vivo
Details: 72 h, slope of regression (LDP) line
Description: Five concentrations (200, 100, 50, 25, 12.5 ppm) were designed for this synthetic compound and the reference fenoxycarb compound as the dynamic ingredients based on ppm via diluting the commercial formulation.
In this experiment, castor leaves are immersed in each of the previously prepared concentrations of the components for 10 seconds and then left to dry for 60 minutes. Larvae of the second and fourth instars of each checked strain are prepared with treated leaves in gauze-covered glass containers for 72 hrs. An untreated control is made in which leaves are dipped in triton x-100 and distilled water only. Then the preserved leaves were removed & fresh, untreated leaves were provided for 72 hours. Three replicates (10 larvae each) were checked for each concentration. Daily inspection was carried out for all treatments and mortality percentages were recorded 3 days (72 hours) after treatment. The average mortality percentage was corrected employing Abbott's formula. The corrected mortality rate for each of the previously synthesized compounds is statistically calculated according to Finney (1970). Through this rate, the corresponding concentration test lines (LDP lines) are assessed. Fifty and ninety percent mortality are determined, and the regression values for the checked products were previously evaluated.

Row | Compound | slope ± SE (2nd instar larvae) | slope ± SE (4th instar larvae)
1 | CCOC(=O)NCCOc1ccc(Oc2ccccc2)cc1 [Fenoxycarb, reference compound] | 0.238 ± 0.082 | 0.251 ± 0.082
2 | OC(COc1ccc2ccccc2c1)CN1CCCCC1 (stereo not shown) [Compound 1, 1-(naphthalen-2-yloxy)-3-(piperidin-1-yl)propan-2-ol] | 0.283 ± 0.083 | 0.232 ± 0.085

From patent US12180160B1, “1-(naphthalen-2-yloxy)-3-(piperidin-1-yl)propan-2-ol as an eco-friendly insecticidal agent against Spodoptera littoralis (boisd.)” (priority 2023, dated 2024)
